In the supplement of paper PMC10849652:
This is one part of the list. Residues, ends and D or L forms follow the SMILES beside them. *: point of attachment. Cbz = O=C(OCc1ccccc1)*

Sequences of proteins named here, by UniProt entry; tags and fusion partners are left off. A change or cut given only in a name is not applied to a line headed by its entry.
UniProt P08123: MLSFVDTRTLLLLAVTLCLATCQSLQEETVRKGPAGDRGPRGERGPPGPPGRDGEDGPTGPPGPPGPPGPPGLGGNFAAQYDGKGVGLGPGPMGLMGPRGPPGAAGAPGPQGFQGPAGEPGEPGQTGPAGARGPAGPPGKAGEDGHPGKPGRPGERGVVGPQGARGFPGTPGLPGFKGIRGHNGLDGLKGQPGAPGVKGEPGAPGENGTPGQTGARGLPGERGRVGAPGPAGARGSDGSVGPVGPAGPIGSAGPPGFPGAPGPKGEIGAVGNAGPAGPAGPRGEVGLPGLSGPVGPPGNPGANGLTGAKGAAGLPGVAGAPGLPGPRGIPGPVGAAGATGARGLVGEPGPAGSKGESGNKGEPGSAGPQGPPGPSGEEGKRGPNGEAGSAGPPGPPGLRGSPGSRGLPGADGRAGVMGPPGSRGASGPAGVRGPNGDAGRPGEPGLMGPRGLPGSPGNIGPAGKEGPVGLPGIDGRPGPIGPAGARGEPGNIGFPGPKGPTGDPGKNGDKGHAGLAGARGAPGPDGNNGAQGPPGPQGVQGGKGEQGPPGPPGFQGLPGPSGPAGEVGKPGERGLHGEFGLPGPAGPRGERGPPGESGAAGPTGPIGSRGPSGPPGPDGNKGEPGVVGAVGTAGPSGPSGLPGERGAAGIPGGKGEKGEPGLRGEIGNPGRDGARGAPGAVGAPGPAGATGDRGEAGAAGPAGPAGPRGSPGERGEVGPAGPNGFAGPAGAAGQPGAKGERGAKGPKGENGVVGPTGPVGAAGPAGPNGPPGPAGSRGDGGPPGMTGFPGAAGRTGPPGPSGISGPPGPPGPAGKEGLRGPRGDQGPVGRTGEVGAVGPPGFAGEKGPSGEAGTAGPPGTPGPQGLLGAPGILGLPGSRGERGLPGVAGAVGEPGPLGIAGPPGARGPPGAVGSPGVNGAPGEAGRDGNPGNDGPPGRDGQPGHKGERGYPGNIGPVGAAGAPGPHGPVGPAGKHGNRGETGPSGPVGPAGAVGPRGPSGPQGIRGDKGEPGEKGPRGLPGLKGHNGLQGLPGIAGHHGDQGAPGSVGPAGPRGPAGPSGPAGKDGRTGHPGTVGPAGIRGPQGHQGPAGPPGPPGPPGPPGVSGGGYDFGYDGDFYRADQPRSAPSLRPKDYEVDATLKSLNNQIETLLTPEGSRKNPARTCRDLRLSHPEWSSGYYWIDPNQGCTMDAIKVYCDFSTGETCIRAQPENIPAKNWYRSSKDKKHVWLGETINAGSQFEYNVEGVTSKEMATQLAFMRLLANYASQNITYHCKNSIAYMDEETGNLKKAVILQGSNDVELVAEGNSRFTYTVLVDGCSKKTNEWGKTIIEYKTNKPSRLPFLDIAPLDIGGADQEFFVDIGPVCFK
UniProt Q9Y2R0: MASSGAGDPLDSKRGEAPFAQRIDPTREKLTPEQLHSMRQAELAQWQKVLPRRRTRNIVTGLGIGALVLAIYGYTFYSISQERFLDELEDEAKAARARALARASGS
UniProt Q6FI81: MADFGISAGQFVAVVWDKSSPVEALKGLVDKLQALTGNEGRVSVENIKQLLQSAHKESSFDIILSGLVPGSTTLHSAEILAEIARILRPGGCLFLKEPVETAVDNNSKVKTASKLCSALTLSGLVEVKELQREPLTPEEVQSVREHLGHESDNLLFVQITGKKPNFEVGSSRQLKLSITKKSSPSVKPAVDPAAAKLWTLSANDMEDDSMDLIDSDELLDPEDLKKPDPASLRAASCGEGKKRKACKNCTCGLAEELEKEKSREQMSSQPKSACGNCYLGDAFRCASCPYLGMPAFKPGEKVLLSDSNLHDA
UniProt P06732: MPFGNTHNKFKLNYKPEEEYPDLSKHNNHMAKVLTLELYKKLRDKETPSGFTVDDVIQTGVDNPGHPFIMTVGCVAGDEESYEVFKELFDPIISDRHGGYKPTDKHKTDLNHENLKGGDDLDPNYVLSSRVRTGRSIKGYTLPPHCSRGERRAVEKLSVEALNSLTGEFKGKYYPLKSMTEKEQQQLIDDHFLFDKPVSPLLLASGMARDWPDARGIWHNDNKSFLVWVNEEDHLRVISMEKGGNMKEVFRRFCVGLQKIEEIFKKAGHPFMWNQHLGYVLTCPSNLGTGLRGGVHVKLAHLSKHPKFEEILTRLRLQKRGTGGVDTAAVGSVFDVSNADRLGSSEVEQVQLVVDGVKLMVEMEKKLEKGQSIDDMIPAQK
UniProt Q8WUX9: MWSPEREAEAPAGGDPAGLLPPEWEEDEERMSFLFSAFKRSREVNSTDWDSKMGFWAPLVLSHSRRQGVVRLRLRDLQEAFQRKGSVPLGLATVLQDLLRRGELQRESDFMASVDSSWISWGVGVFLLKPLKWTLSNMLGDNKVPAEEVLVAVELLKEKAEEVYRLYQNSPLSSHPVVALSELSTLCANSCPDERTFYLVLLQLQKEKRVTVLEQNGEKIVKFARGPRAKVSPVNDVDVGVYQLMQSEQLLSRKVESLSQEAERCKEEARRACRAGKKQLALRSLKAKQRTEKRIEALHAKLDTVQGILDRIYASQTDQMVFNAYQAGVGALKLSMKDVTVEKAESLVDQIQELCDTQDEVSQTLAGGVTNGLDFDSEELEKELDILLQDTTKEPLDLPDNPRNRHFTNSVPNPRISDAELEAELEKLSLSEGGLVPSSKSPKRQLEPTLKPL
UniProt Q9H9A5, whole entry, looked up: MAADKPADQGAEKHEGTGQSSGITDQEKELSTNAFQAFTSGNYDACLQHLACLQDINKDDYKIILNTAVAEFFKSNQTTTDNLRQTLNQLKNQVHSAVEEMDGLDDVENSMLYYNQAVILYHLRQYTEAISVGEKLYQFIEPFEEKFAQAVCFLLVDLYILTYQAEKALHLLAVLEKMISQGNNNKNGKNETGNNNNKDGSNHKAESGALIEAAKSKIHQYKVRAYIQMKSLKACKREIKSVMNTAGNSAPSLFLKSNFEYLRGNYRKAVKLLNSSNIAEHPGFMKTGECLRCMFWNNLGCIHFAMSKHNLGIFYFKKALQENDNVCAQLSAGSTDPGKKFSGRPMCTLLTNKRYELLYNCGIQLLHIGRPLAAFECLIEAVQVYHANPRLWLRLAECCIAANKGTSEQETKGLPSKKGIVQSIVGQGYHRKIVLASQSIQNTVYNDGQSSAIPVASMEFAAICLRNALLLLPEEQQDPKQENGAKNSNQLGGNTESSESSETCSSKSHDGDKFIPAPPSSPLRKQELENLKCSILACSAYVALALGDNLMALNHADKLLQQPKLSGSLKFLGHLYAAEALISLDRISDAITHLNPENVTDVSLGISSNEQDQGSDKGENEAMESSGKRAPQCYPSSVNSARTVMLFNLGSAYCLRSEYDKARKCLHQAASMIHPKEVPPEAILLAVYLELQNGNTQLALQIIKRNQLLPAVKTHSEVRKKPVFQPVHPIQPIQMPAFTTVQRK
UniProt Q9NRG0: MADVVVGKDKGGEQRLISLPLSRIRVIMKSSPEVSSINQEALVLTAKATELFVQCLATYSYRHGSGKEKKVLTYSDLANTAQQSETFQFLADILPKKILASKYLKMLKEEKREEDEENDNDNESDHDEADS
UniProt Q9BQ75: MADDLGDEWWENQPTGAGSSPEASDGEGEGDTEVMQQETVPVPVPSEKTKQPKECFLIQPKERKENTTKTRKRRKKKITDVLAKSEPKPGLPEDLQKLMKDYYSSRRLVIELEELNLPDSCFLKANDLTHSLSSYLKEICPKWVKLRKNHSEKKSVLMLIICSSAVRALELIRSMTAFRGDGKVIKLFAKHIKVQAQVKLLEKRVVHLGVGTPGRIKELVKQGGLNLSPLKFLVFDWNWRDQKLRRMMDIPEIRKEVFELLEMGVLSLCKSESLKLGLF
UniProt P0C7P0: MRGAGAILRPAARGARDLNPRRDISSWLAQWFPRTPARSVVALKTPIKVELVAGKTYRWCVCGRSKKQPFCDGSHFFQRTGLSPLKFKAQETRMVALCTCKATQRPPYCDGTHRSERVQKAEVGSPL
UniProt Q9GZY4: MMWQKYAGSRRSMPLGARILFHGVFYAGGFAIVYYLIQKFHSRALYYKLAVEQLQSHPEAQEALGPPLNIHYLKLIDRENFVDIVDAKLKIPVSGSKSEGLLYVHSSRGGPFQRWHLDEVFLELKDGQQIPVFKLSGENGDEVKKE
UniProt Q14008: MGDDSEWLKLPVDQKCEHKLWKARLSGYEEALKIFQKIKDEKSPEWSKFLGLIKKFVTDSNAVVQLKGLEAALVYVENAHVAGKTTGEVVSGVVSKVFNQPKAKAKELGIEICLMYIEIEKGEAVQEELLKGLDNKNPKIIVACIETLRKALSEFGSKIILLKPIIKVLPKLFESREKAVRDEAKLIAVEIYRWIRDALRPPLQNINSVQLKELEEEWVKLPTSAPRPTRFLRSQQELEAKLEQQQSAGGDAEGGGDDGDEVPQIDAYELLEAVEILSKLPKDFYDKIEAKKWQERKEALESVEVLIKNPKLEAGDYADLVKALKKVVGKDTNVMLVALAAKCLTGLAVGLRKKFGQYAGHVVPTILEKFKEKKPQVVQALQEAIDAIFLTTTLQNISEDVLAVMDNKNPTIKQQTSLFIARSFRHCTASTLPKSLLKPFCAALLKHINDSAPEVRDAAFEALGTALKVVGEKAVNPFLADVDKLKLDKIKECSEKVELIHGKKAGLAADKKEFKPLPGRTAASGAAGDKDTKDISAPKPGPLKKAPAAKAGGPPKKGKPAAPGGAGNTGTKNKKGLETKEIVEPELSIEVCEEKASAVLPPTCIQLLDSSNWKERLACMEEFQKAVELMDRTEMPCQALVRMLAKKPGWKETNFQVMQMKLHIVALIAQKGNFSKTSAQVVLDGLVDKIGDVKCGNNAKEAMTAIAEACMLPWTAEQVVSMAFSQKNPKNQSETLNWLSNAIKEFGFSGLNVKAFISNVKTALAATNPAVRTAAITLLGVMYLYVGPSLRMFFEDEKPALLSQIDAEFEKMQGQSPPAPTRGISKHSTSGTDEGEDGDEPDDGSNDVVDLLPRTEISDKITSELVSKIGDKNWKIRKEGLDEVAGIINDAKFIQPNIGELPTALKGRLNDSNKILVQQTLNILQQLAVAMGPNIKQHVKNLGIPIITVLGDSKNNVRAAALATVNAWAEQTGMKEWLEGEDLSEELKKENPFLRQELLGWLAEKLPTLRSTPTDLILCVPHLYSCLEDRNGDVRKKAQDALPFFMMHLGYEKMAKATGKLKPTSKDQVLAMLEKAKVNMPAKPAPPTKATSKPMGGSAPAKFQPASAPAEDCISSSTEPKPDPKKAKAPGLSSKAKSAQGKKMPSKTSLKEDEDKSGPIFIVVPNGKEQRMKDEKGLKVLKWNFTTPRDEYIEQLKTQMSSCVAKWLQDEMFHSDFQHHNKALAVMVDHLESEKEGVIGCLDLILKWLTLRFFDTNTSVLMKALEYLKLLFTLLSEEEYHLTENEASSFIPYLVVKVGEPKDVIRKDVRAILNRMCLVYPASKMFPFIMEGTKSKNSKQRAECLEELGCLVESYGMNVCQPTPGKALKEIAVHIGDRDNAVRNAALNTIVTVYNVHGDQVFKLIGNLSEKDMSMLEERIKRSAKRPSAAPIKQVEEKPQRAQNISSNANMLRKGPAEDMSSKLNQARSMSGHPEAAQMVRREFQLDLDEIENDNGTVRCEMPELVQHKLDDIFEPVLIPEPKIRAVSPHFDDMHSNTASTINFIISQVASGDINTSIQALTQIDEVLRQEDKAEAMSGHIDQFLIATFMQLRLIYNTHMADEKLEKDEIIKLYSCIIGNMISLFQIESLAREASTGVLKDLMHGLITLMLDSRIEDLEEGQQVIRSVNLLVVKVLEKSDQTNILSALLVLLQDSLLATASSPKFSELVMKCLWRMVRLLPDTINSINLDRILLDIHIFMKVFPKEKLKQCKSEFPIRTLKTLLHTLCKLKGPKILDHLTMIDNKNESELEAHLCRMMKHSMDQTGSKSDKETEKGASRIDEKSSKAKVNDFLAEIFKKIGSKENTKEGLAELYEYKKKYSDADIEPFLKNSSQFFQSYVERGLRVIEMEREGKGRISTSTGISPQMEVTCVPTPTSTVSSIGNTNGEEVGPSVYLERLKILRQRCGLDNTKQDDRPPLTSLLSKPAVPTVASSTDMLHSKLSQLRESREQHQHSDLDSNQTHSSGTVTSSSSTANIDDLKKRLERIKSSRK
UniProt Q9NRP2: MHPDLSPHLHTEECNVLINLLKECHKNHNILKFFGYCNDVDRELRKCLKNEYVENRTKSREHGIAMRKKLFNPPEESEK
UniProt Q92600, whole entry, looked up: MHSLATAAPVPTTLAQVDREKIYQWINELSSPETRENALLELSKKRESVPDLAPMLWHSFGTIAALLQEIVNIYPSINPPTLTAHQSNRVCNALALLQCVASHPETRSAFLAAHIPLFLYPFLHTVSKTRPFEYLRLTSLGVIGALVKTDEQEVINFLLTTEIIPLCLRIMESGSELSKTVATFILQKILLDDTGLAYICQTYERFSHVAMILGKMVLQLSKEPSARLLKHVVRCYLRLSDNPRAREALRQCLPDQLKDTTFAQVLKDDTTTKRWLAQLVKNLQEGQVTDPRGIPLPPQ

Legend:
Assay in all cases: log2 fold change, soluble protein after heating vs DMSO (PISA); higher = thermal stabilisation; K562 cells, 10 uM, 30 min; active = over 0.2 and 3.5 SD of the protein, either way, in both replicates (recomputed)
[1] = compound: C#Cc1cccc(Nc2ncnc3cc(OCCOC)c(OCCOC)cc23)c1 [erlotinib]
Method in brief: (§1)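 For each measurement, 10 μM compound was applied for 30 min to K562 cells at 2×10^6 cells/mL. Aliquots were heated for 3 min across 48°C-58°C, pooled, and extracted in PBS with 0.5% NP-40 at 4°C; the supernatant after 21,000xg for 90 min was soluble protein. This was quantified by TMTpro 16plex LC-MS/MS with channel sums equalised, and thermal stability was reported relative to control samples from duplicates, on a log2 fold-change scale.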

[2] = compound: C/C(=N\NC(=O)C1=CC(=CC=C1)S(=O)(=O)N2CCOCC2)/C3=C(C=CC(=C3)Cl)O
Method in brief: as §1

[3] = compound: C1=CC(=C(C=C1Cl)C2=NC3=NC=CN=C3C(=N2)NC4=CC=NC=C4)F
Method in brief: as §1

[4] = compound: C1=CC(=CC=C1C2=NC3=C(N2)C=C(C=C3)C(=O)N)OC4=CC=C(C=C4)Cl
Method in brief: as §1

[5] = compound: C1=CC2=C(C=CC(=C2)/C=C\3/C(=O)NC(=NCC4=CC=CS4)S3)N=C1
Method in brief: as §1

[6] = compound: C1=CC2=NC=CN=C2C=C1/C=C/3\C(=O)NC(=O)S3
Method in brief: as §1

[7] = compound: C1=CC=C(C=C1)C2=NC(=C(N2)C3=CC=NC=C3)C4=CC(=C(C=C4)Cl)O
Method in brief: as §1

[8] = compound: C1=CC=C2C(=C1)C3=NNC4=CC=CC(=C43)C2=O
Method in brief: as §1

[9] = compound: C1CCN(C1)C(=O)NC2=CC=CC(=C2)NC3=NC=C(C(=N3)NCCC4=CN=CN4)Br
Method in brief: as §1

[10] = compound: C1CN(CCC1(CC2=CC=C(C=C2)Cl)N)C3=NC=NC4=C3C=CN4
Method in brief: as §1

[11] = compound: C1COCCN1CCN2C3=CC=CC=C3N=C2NC(=O)C4=CC(=CC=C4)[N+](=O)[O-] [IRAK-1-4 Inhibitor I]
Method in brief: as §1

[12] = compound: C=CC(=O)N1CCC[C@@H](n2nc(-c3ccc(Oc4ccccc4)cc3)c3c(N)ncnc32)C1 [ibrutinib]
Method in brief: as §1

[13] = compound: CC(=O)c1cnc2ccc(-c3cc(Cl)c(O)c(Cl)c3)nc2c1N[C@H]1CC[C@H](CN(C)C)CC1
Method in brief: as §1

[14] = compound: CC(C)(C)Cn1c(N)nc2ccc(-c3[nH]c(C(C)(C)C)nc3-c3ccc(F)cc3)nc21 [ralimetinib]
Method in brief: as §1

[15] = compound: CC(C)(O)CC(=O)NCCn1ccc2ncnc(Nc3ccc(Oc4cccc(C(F)(F)F)c4)c(Cl)c3)c21
Method in brief: as §1

[16] = compound: CC(C)C1=C2N=C(C=C(N2N=C1)NCC3=CC=CC=C3)NCCCCCCN
Method in brief: as §1

[17] = compound: CC(C)C[C@@H](C=O)NC(=O)[C@H](CC(C)C)NC(=O)[C@H](CC(C)C)NC(=O)OCc1ccccc1
Method in brief: as §1

[18] = compound: CC(C)N(C[C@H]1O[C@@H](n2cnc3c(N)ncnc32)[C@H](O)[C@@H]1O)[C@H]1C[C@@H](CCc2nc3cc(C(C)(C)C)ccc3[nH]2)C1 [pinometostat]
Method in brief: as §1

[19] = compound: CC1=C(C(CC(=O)N1)C2=CC=C(C=C2)C(F)(F)F)C(=O)NC3=C(C=C4C(=C3)C=NN4)F
Method in brief: as §1

[20] = compound: CC1=C(C2=C(C=C1)C(=O)C3=CC=CC=C3N2CCCN)C
Method in brief: as §1

Measured: log2 fold change

COL1A2 (UniProt P08123)
inactive: [1] 0.06 | [2] -0.106 | [3] 0.055 | [4] 0.145 | [5] 0.101 | [6] 0 | [7] -0.035 | [8] -0.183 | [9] 0.22 | [10] 0.228 | [11] -0.05 | [12] -0.4 | [13] 0.07 | [14] 0.015 | [15] 0.221 | [16] 0.399 | [17] 0.057 | [18] 0.101 | [19] 0 | [20] -0.26

COA3 (UniProt Q9Y2R0)
inactive: [1] -0.002 | [2] -0.001 | [3] 0.073 | [4] -0.043 | [5] -0.046 | [6] 0.069 | [7] -0.052 | [8] 0.029 | [9] -0.035 | [10] 0.006 | [11] 0.008 | [12] -0.004 | [13] 0.011 | [14] -0.08 | [15] 0.057 | [16] 0.039 | [17] 0.009 | [18] -0.087 | [19] 0.016 | [20] -0.014

CNOT11 (UniProt Q9UKZ1)
inactive: [1] -0.116 | [2] -0.009 | [3] 0.037 | [4] 0.025 | [5] 0.081 | [6] -0.007 | [7] 0.061 | [8] -0.058 | [9] -0.126 | [10] -0.007 | [11] 0.047 | [12] 0.039 | [13] -0.165 | [14] 0.073 | [15] 0.03 | [16] -0.021 | [17] 0.061 | [18] 0.064 | [19] -0.01 | [20] 0.064

CKMT1A (UniProt P12532)
inactive: [1] -0.007 | [2] -0.04 | [3] -0.03 | [4] 0.034 | [5] 0.005 | [6] 0.023 | [7] -0.02 | [8] -0.005 | [9] -0.015 | [10] 0.03 | [11] 0.048 | [12] -0.002 | [13] -0.009 | [14] -0.012 | [15] -0.015 | [16] 0.071 | [17] -0.016 | [18] 0.002 | [19] 0.005 | [20] -0.039

CIAPIN1 (UniProt Q6FI81)
inactive: [1] -0.027 | [2] 0.041 | [3] 0.089 | [4] -0.02 | [5] 0.006 | [6] 0.044 | [7] 0.032 | [8] 0.023 | [9] -0.017 | [10] 0.007 | [11] 0.015 | [12] -0.02 | [13] -0.019 | [14] 0.029 | [15] -0.035 | [16] -0.009 | [17] -0.013 | [18] -0.052 | [19] -0.001 | [20] 0.02

CKM (UniProt P06732)
inactive: [1] -0.024 | [2] 0.034 | [3] 0.073 | [4] 0.023 | [5] 0.066 | [6] -0.016 | [7] 0.072 | [8] 0.041 | [9] -0.004 | [10] -0.003 | [11] -0.024 | [12] 0.034 | [13] -0.021 | [14] -0.002 | [15] -0.133 | [16] -0.028 | [17] 0 | [18] 0.022 | [19] -0.038 | [20] 0.072

CHMP7 (UniProt Q8WUX9)
inactive: [1] 0.094 | [2] 0.046 | [3] 0.054 | [4] -0.087 | [5] 0.106 | [6] 0.134 | [7] 0.037 | [8] -0.078 | [9] -0.061 | [10] 0.033 | [11] -0.046 | [12] -0.07 | [13] 0.016 | [14] 0.107 | [15] -0.221 | [16] -0.252 | [17] -0.035 | [18] 0.127 | [19] -0.008 | [20] 0.037

CNOT10 isoform 6 (UniProt Q9H9A5)
inactive: [1] -0.052 | [2] 0.014 | [3] -0.035 | [4] 0.01 | [5] 0.04 | [6] 0.01 | [7] -0.028 | [8] -0.01 | [9] -0.041 | [10] 0.007 | [11] -0.037 | [12] -0.033 | [13] 0.004 | [14] 0.028 | [15] -0.065 | [16] -0.082 | [17] 0.045 | [18] 0.056 | [19] 0.038 | [20] 0.098

CHRAC1 (UniProt Q9NRG0)
inactive: [1] 0.055 | [2] 0.101 | [3] 0.129 | [4] -0.023 | [5] 0.058 | [6] -0.058 | [7] -0.031 | [8] 0.034 | [9] -0.024 | [10] 0.046 | [11] -0.032 | [12] -0.009 | [13] -0.065 | [14] -0.061 | [15] -0.037 | [16] -0.07 | [17] -0.102 | [18] -0.008 | [19] 0.052 | [20] 0.021

CMSS1 (UniProt Q9BQ75)
inactive: [1] -0.051 | [2] 0.114 | [3] -0.121 | [4] -0.045 | [5] 0.044 | [6] -0.011 | [7] -0.003 | [8] -0.127 | [9] -0.026 | [10] -0.014 | [11] -0.065 | [12] -0.014 | [13] -0.081 | [14] 0.171 | [15] -0.006 | [16] 0.219 | [17] 0.069 | [18] -0.028 | [19] 0.058 | [20] -0.248

CISD3 (UniProt P0C7P0)
inactive: [1] 0.014 | [2] 0.038 | [3] 0.044 | [4] 0.119 | [5] -0.074 | [6] -0.064 | [7] 0.107 | [8] -0.008 | [9] -0.102 | [10] 0.049 | [11] -0.018 | [12] 0.015 | [13] 0.16 | [14] -0.002 | [15] -0.048 | [16] -0.066 | [17] -0.003 | [18] 0.009 | [19] 0.048 | [20] 0.145

CHORDC1 (UniProt Q9UHD1)
inactive: [1] -0.056 | [2] 0.04 | [3] 0.097 | [4] 0.034 | [5] 0.008 | [6] -0.004 | [7] 0.007 | [8] 0.014 | [9] -0.013 | [10] -0.021 | [11] 0.015 | [12] -0.008 | [13] 0.009 | [14] 0.041 | [15] -0.038 | [16] -0.007 | [17] -0.034 | [18] -0.022 | [19] -0.059 | [20] 0.03

Taken from above (2 entries):
CHRAC1 (UniProt Q9NRG0)
inactive: [1] 0.055 | [2] 0.101 | [3] 0.129 | [4] -0.023 | [5] 0.058 | [6] -0.058 | [7] -0.031 | [8] 0.034 | [9] -0.024 | [10] 0.046 | [11] -0.032 | [12] -0.009 | [13] -0.065 | [14] -0.061 | [15] -0.037 | [16] -0.07 | [17] -0.102 | [18] -0.008 | [19] 0.052 | [20] 0.021

CMSS1 (UniProt Q9BQ75)
inactive: [1] -0.051 | [2] 0.114 | [3] -0.121 | [4] -0.045 | [5] 0.044 | [6] -0.011 | [7] -0.003 | [8] -0.127 | [9] -0.026 | [10] -0.014 | [11] -0.065 | [12] -0.014 | [13] -0.081 | [14] 0.171 | [15] -0.006 | [16] 0.219 | [17] 0.069 | [18] -0.028 | [19] 0.058 | [20] -0.248

Next entries

COA1 (UniProt Q9GZY4)
inactive: [1] 0.031 | [2] -0.029 | [3] 0.01 | [4] -0.002 | [5] 0.043 | [6] 0.039 | [7] 0.005 | [8] -0.003 | [9] 0.009 | [10] 0.04 | [11] 0.062 | [12] -0.02 | [13] -0.019 | [14] -0.064 | [15] 0.008 | [16] -0.132 | [17] 0.037 | [18] -0.004 | [19] -0.028 | [20] 0.05

CKAP5 (UniProt Q14008)
inactive: [1] 0.04 | [2] 0.097 | [3] -0.043 | [4] -0.038 | [5] 0.061 | [6] -0.007 | [7] -0.015 | [8] 0.02 | [9] -0.068 | [10] -0.177 | [11] -0.142 | [12] -0.022 | [13] -0.069 | [14] 0.122 | [15] -0.06 | [16] -0.245 | [17] 0.066 | [18] 0.209 | [19] -0.013 | [20] 0.051

CMC2 (UniProt Q9NRP2)
inactive: [1] -0.089 | [2] -0.013 | [3] 0.055 | [4] -0.027 | [5] -0.045 | [6] 0.009 | [7] -0.162 | [8] 0.026 | [9] 0.029 | [10] -0.018 | [11] 0.024 | [12] -0.017 | [13] -0.018 | [14] -0.239 | [15] -0.035 | [16] -0.07 | [17] -0.132 | [18] -0.085 | [19] 0.013 | [20] 0.046

CNOT9 isoform 2 (UniProt Q92600)
inactive: [1] -0.008 | [2] 0.011 | [3] -0.03 | [4] -0.01 | [5] 0.004 | [6] 0.033 | [7] 0.032 | [8] -0.024 | [9] -0.028 | [10] 0.023 | [11] -0.035 | [12] -0.051 | [13] -0.027 | [14] 0.025 | [15] -0.091 | [16] -0.006 | [17] 0.006 | [18] 0.014 | [19] -0.041 | [20] 0.046
